Measurements reported in patent US6087493A, “Porphyrin compounds as telomerase inhibitors” (Regents of the University of Texas System, priority 1998, dated 2000).

Key:
[1] = system: quadruplex formed by d(TTAGGG); test: NMR titration of parallel-stranded quadruplex; type: binding, human; settings: one equivalent TMPyP4
[2] = system: intramolecular quadruplex d(AG3 [T2 AG3 ]3); test: UV titration with intramolecular quadruplex; type: binding, human

C[n+]1ccc(-c2c3nc(c(-c4cc[n+](C)cc4)c4ccc([nH]4)c(-c4cc[n+](C)cc4)c4nc(c(-c5cc[n+](C)cc5)c5ccc2[nH]5)C=C4)C=C3)cc1 [TMPyP4, 5,10,15,20-tetra-(N-methyl-4-pyridyl)porphine]
G4(NH1) upfield shift [1]: 0.7 ppm | G5(NH1) upfield shift [1]: 0.2 ppm | G6(NH1) shift [1]: unchanged | UV spectral change [2]: sharp isosbestic points, hypochromicity, and a marked red-shift | stoichiometry of porphyrins per quadruplex [2]: two porphyrins per quadruplex
